From US20100323062A1, “BIOPROCESSING OF GRAINS” (GRAIN FOODS CRC LTD, priority 2006, published 2010)

Key:
Wheat cv. Wedgetail = assay: Laboratory Buhler test mill milling after conditioning with plant hormones; conditions: hormone 1.5 mg/kg crop kernel
wheat = assay: Flour yield over many observations using ABA at different concentrations
[1] = nominal conditioning time 12 hours
[2] = nominal conditioning time 16 hours
[3] = nominal conditioning time 20 hours
[4] = nominal conditioning time 24 hours

Molecule | Flour Yield (%) (Wheat cv. Wedgetail; [1]) | Flour Yield (%) (Wheat cv. Wedgetail; [2]) | Flour Yield (%) (Wheat cv. Wedgetail; [3]) | Flour Yield (%) (Wheat cv. Wedgetail; [4]) | flour yield versus control (wheat; 1 mg/kg crop kernel) | flour yield versus control (wheat; 2 mg ABA per kg crop kernel, wheat sample 2 kg or 5 kg) | flour yield versus control (wheat; 4 mg/kg crop kernel)
C=C1C[C@]23C[C@@]1(O)CC[C@H]2[C@@]12C=C[C@H](O)[C@@](C)(C(=O)O1)[C@H]2[C@@H]3C(=O)O [GA3, gibberellic acid] | 77.9 | 78.3 | 78.1 | 78.0 |  |  | 
CC1=CC(=O)CC(C)(C)C1(O)/C=C/C(C)=C\C(=O)O (stereo not drawn) [ABA, absicisic acid] | 78.6 | 78.4 | 78.0 | 78.4 | No increase in flour yield | flour yield increases | flour yield increased
indole acetic acid [IAA] | 78.2 | 78.1 | 77.9 | 78.3 |  |  | 
